# The whole screen tested about 300,000 compounds, of which about 3,700 (1.2%) were called active. Inconclusive means that the source gave no clear call. Such entries were picked first, then a sample of the others. Calls come from the whole dose curve; tested in HEK293 cells. Potencies beside an inconclusive call are fits to weak or partial responses and may not hold up.
# Experiment: qHTS for Inhibitors of binding or entry into cells for Lassa Virus; note: nearly all actives have a fitted effect of over 50% in size
# Conditions: Lassa virus pseudotype entry inhibition, cell reporter; activity change, negative = inhibition: at 37.9 µM (top of the series) unless noted
# % is set by controls: 0 for no effect and ±100 for the full control effect; potency is the fitted concentration of half-maximal effect.
SMILES,Potency,"activity change, negative = inhibition"
O=C(/C(=C/c1ccccc1)c1ccccc1)N1CCCCC1,"inconclusive: 8.91 µM [activator, partial curve, poor fit]",–
O=C1CC(c2cccc(Br)c2)c2cc3c(cc2N1)CCC3 (centres undefined),"inconclusive: 5.8 µM [inhibitor, full curve, poor fit]",–
COc1ccc(S(=O)(=O)Nc2cccc(N(C)S(C)(=O)=O)c2)cc1Br,"inconclusive: 17.8 µM [inhibitor, partial curve, poor fit]",–
O=C(O)c1ccc(Cl)nc1,–,inactive: -0.269%
O=C(NCc1ccc(Cl)cc1Cl)Nc1ccccc1,"inconclusive: 14.1 µM [inhibitor, single point]",–
CCc1ccccc1NC(=O)Cn1c(=O)ccc2cc(S(=O)(=O)N3CCCC3)ccc21,"inconclusive: 1.12 µM [inhibitor, full curve, poor fit]",–
CCOc1ccc2nc(/N=C/c3c(C)[nH]n(-c4ccccc4)c3=O)sc2c1,–,inactive: -22.3%
Cc1ccc(-n2c(=O)c3c4c(sc3n(CC(=O)C(C)(C)C)c2=O)CCCCC4)cc1C,–,inactive: 2.66% [at 46.1 µM]
COc1ccc(-c2nc3scc(CCNS(=O)(=O)c4cccs4)n3n2)cc1,–,inactive: -18.4% [at 46.1 µM]
CN1CCN(C(=O)c2cc(COc3c(F)cccc3F)on2)CC1c1ccccc1 (centres undefined),"inconclusive: 35.5 µM [inhibitor, single point]",–
CCn1nc(C)c(C2C(C#N)=C(N)OC3=C2C(=O)CCC3)c1C (centres undefined),"inconclusive: 20.6 µM [activator, partial curve, poor fit]",–
CCCCCOC(=O)CSc1nc2sc3c(c2c(=O)n1Cc1ccccc1)CC(C)(CC)OC3 (centres undefined),–,inactive: -14.8% [at 46.1 µM]
CCOc1ccc(-c2cc3cc(OC)c(OC)cc3c(C)n2)cc1,–,inactive: -22.2%
COc1ccc(-n2c(N)c(C(=O)NCC3CCCO3)sc2=S)cc1 (centres undefined),–,inactive: -0.0293%
Cc1ccc(NC(=S)N2CCN(S(=O)(=O)c3ccccc3)CC2)cc1C,"inconclusive: 10 µM [inhibitor, partial curve, poor fit]",–
Cc1ccc(S(=O)(=O)/N=C2\C=C(NS(=O)(=O)c3ccccc3)C(=O)c3ccccc32)c(C)c1,–,inactive: -15.3%
COc1cnc(-c2ccccn2)nc1Sc1ccc(F)cc1,"inconclusive: 12.6 µM [inhibitor, partial curve, poor fit]",–
CCOc1ccc(NC(=O)CN(C)C(=O)c2cc(S(=O)(=O)N3CCCCC3)ccc2Cl)cc1OCC,"inconclusive: 12.6 µM [activator, single point]",–
COc1cc(/C=N\Nc2nc3ccccc3o2)cc(OC)c1OC,"inconclusive: 1.64 µM [activator, partial curve, poor fit]",–
CCOC(=O)/C(=N/Nc1ccc(C)cc1)S(=O)(=O)c1ccc(Cl)cc1,–,inactive: 6.76%
CCCCOc1cccc(-c2nnc(NC(=O)CSc3ccc(C)cc3)s2)c1,active: 0.316 µM,–
Cc1nc2cccnc2n1-c1cccc(C(=O)NCc2cccc(Cl)c2)c1,–,inactive: 1.6% [at 46.1 µM]

# Single records, as listed above:
# CCOc1ccc2nc(/N=C/c3c(C)[nH]n(-c4ccccc4)c3=O)sc2c1 is listed with activity change, negative = inhibition: inactive: -22.3%
# CN1CCN(C(=O)c2cc(COc3c(F)cccc3F)on2)CC1c1ccccc1 (centres undefined) is listed with Potency: inconclusive: 35.5 µM [inhibitor, single point]

# (list continues)

SMILES,Potency,"activity change, negative = inhibition"
COC(=O)c1ccc(/C(O)=C(\C#N)c2nc3ccccc3s2)cc1,–,inactive: -29.1%
CCCn1nnc(NC(=O)c2ccc(OC)cc2)n1,–,inactive: 7.71%
C/C(=N\NC(=O)c1cc(-c2cccnc2)nc2ccccc12)c1ccc(O)cc1O,active: 6.31 µM,–
O=C(NCCCN1CCCC1=O)c1ccc(S(=O)(=O)Nc2ccccc2F)cc1,"inconclusive: 3.98 µM [activator, single point]",–
COCCn1ccc2c(OCC(=O)NCCc3ccccc3)cccc2c1=O,"inconclusive: 12.6 µM [inhibitor, partial curve]",–
CCC(C)N(C(=O)c1csnn1)C(C(=O)NC1CCCC1)c1c(F)cccc1Cl (centres undefined),–,inactive: 20.7% [at 46.1 µM]
CCOC(=O)c1c(-c2ccccc2)csc1NC(=O)CSc1nnnn1C,"inconclusive: 25.9 µM [inhibitor, single point]",–
COC(=O)Oc1ccc(/C=N/NC(=O)CSCc2ccc(Cl)cc2)cc1OC,"inconclusive: 23.1 µM [inhibitor, partial curve, poor fit]",–
O=C(c1ccco1)N1CCCN(Cc2nc(Cc3ccccc3)no2)CC1,"inconclusive: 6.31 µM [inhibitor, full curve, poor fit]",–
CCOC(=O)c1ccc(NC(=O)Nc2cc3c(cc2N2CCCCC2)n(CC)c(=O)n3CC)cc1,"inconclusive: 10 µM [inhibitor, partial curve, poor fit]",–
O=C(Nc1cccc(Cl)c1)OCc1cn(-c2ccccc2)nn1,"inconclusive: 3.55 µM [activator, partial curve, poor fit]",–
CCN1C(=O)N(CC)C(O)(c2ccccc2)C1(O)c1ccccc1 (centres undefined),–,inactive: 8.11%
CC(=O)c1c(-c2ccc(Cl)cc2)c2ccccc2[nH]c1=O,"inconclusive: 6.31 µM [inhibitor, single point]",–
COc1ccc(-c2nc(CN3CCCC(C(=O)NC4CCCC4)C3)c(C)o2)cc1 (centres undefined),"inconclusive: 23.1 µM [inhibitor, single point]",–
CCC(=O)N1CCc2cc(Br)cc(S(=O)(=O)NCCc3ccc(C)cc3)c21,"inconclusive: 5.62 µM [inhibitor, full curve, poor fit]",–
CC(C)=N/N=C1/NC(=O)C(c2ccccc2)S1 (centres undefined),–,inactive: -1.69%
COc1ccc2nc(-c3ccccc3)cc(OC)c2c1,"inconclusive: 2.91 µM [activator, partial curve]",–
COC(=O)c1ccc(NC(=O)c2c(-c3ccccc3)c(-c3ccccc3)nn(C)c2=O)cc1,–,inactive: 25.2% [at 46.1 µM]
CCC(Oc1cccc(C)c1)C(=O)Nc1ccccc1C(=O)N1CCOCC1 (centres undefined),"inconclusive: 0.891 µM [inhibitor, single point]",–
NS(=O)(=O)c1cccc(NC(=O)CSc2ncc(C(F)(F)F)cc2Cl)c1,"inconclusive: 28.2 µM [inhibitor, single point]",–
Cc1ccc(C)c(Cn2nnc3c(=O)[nH]c(C4CCN(C(=O)c5cccs5)CC4)nc32)c1,"inconclusive: 14.6 µM [inhibitor, partial curve]",–
O=C(Nc1ccc2c(c1)CCCN2C(=O)c1cccs1)c1ccccc1C(F)(F)F,"inconclusive: 3.98 µM [inhibitor, full curve, poor fit]",–

# Source: PubChem BioAssay AID540256 (National Center for Advancing Translational Sciences (NCATS), 2011)
